Reference: PubChem BioAssay AID248 (DTP/NCI, 2004)
The list does not hold the whole screen: it is rich in T/C values a quarter to a half above the control, in often repeated tests (any T/C) and in doses without a T/C. Other doses and runs of a compound stand elsewhere. T/C: endpoint of the treated group in % of that of the vehicle group. Some entries give survivors of the animals treated and no T/C: the source files T/C as zero there, which appears to mark a toxic dose or a test without result, not a measured value. Some doses without a T/C left all or most animals alive at the check, yet need not have been tolerated: the source hardly ever lists a survival T/C far under the control, and the zero likely stands for such cases as well. Survivors were counted at the toxicity check, usually on the fifth day, unless a day is given; later deaths do not show. Schedule codes are those of the source, read here as Q, the interval in days (D) or hours (H), X, the number of doses. Some doses were run more than once; their values stand side by side, smallest first. For survival time, this PubChem deposit counts one and a half times the control or more as active, and values a quarter to a half above the control carry no call in these data; other NCI protocols may use other cut-offs. Some T/C values are followed by the survivors on the day toxicity was checked, most often the fifth; where none is given, no animal had died by that day.

System: L1210 leukemia ip in BDF1 mice, survival T/C
Assay: NCI In Vivo Anticancer Drug Screen. Data for tumor model L1210 Leukemia (intraperitoneal) in B6D2F1 (BDF1) mice
Conditions: higher T/C = longer survival
[1] = T/C endpoint: mean survival time, dose: 64.0 mg/kg/injection, schedule: Q01DX009 (ip), vehicle: Klucel (hydroxypropylcellulose) (HPC)
[2] = T/C endpoint: mean survival time, dose: 128.0 mg/kg/injection, schedule: Q01DX009 (ip), vehicle: Klucel (hydroxypropylcellulose) (HPC)

With `COc1cc([C@@H]2c3cc4c(cc3[C@@H](OC3OC5COC(C)OC5C(O)C3O)[C@H]3COC(=O)[C@H]23)OCO4)cc(OC)c1O` (stereo partly specified) the T/C (T/C endpoint: mean survival time, dose: 2.0 mg/kg/injection, schedule: Q01DX009 (sc), vehicle: Klucel (hydroxypropylcellulose) (HPC)) was 126 % of control, the T/C (T/C endpoint: mean survival time, dose: 2.0 mg/kg/injection, schedule: Q01DX009 (sc), vehicle: clinical formulation) was 130 % of control [9 of 10 alive] and the T/C (T/C endpoint: mean survival time, dose: 4.0 mg/kg/injection, schedule: Q01DX009 (sc), vehicle: Klucel (hydroxypropylcellulose) (HPC)) was 137 % of control. The T/C (T/C endpoint: mean survival time, dose: 8.0 mg/kg/injection, schedule: Q01DX009 (sc), vehicle: Klucel (hydroxypropylcellulose) (HPC)) was 147 % of control, the T/C (T/C endpoint: mean survival time, dose: 16.0 mg/kg/injection, schedule: Q01DX001 (ip), vehicle: Klucel (hydroxypropylcellulose) (HPC), evaluated on day 30) was 191 % of control and the T/C (T/C endpoint: mean survival time, dose: 16.0 mg/kg/injection, schedule: Q01DX001 (ip), vehicle: Klucel (hydroxypropylcellulose) (HPC), evaluated on day 60) was 149, 166, 167 % of control. The T/C (T/C endpoint: mean survival time, dose: 16.0 mg/kg/injection, schedule: Q01DX009 (ip), vehicle: Klucel (hydroxypropylcellulose) (HPC), evaluated on day 30) was 111 % of control, the T/C (T/C endpoint: mean survival time, dose: 16.0 mg/kg/injection, schedule: Q01DX009 (ip), vehicle: Klucel (hydroxypropylcellulose) (HPC), evaluated on day 60) was 132 and 148 % of control and the survivor count (T/C endpoint: mean survival time, dose: 16.0 mg/kg/injection, schedule: Q01DX009 (ip), vehicle: Klucel (hydroxypropylcellulose) (HPC)) was 6 of 6. The T/C (T/C endpoint: mean survival time, dose: 16.0 mg/kg/injection, schedule: Q04DX003 (ip), vehicle: Klucel (hydroxypropylcellulose) (HPC), evaluated on day 30) was 208 % of control, the T/C (T/C endpoint: mean survival time, dose: 16.0 mg/kg/injection, schedule: Q04DX003 (ip), vehicle: Klucel (hydroxypropylcellulose) (HPC), evaluated on day 60) was 205, 286, 320 % of control and the T/C (T/C endpoint: mean survival time, dose: 32.0 mg/kg/injection, schedule: Q01DX001 (ip), vehicle: Klucel (hydroxypropylcellulose) (HPC), evaluated on day 30) was 223 % of control. The T/C (T/C endpoint: mean survival time, dose: 32.0 mg/kg/injection, schedule: Q01DX001 (ip), vehicle: Klucel (hydroxypropylcellulose) (HPC), evaluated on day 60) was 228, 267, 395 % of control, the T/C (T/C endpoint: mean survival time, dose: 32.0 mg/kg/injection, schedule: Q01DX001 (sc), vehicle: clinical formulation) was 127 % of control and the T/C (T/C endpoint: mean survival time, dose: 32.0 mg/kg/injection, schedule: Q01DX009 (ip), vehicle: Klucel (hydroxypropylcellulose) (HPC), evaluated on day 30) was 116 % of control. The T/C (T/C endpoint: mean survival time, dose: 32.0 mg/kg/injection, schedule: Q01DX009 (ip), vehicle: Klucel (hydroxypropylcellulose) (HPC), evaluated on day 60) was 91 and 104 % of control, the survivor count (T/C endpoint: mean survival time, dose: 32.0 mg/kg/injection, schedule: Q01DX009 (ip), vehicle: Klucel (hydroxypropylcellulose) (HPC)) was 5 of 6 and the survivor count (T/C endpoint: mean survival time, dose: 32.0 mg/kg/injection, schedule: Q01DX009 (oral), vehicle: clinical formulation) was 0 of 10. For the same compound, the T/C (T/C endpoint: mean survival time, dose: 32.0 mg/kg/injection, schedule: Q01DX009 (sc), vehicle: Klucel (hydroxypropylcellulose) (HPC)) was 130 % of control, the survivor count (T/C endpoint: mean survival time, dose: 32.0 mg/kg/injection, schedule: Q01DX009 (sc), vehicle: clinical formulation) was 10 of 10 and the T/C (T/C endpoint: mean survival time, dose: 32.0 mg/kg/injection, schedule: Q04DX003 (ip), vehicle: Klucel (hydroxypropylcellulose) (HPC), evaluated on day 30) was 335 % of control. For the same compound, the T/C (T/C endpoint: mean survival time, dose: 32.0 mg/kg/injection, schedule: Q04DX003 (ip), vehicle: Klucel (hydroxypropylcellulose) (HPC), evaluated on day 60) was 428 [9 of 10 alive], 484, 616 % of control, the T/C (T/C endpoint: mean survival time, dose: 60.0 mg/kg/injection, schedule: Q04DX003 (ip), vehicle: saline) was 147 % of control and the T/C (T/C endpoint: mean survival time, dose: 64.0 mg/kg/injection, schedule: Q01DX001 (ip), vehicle: Klucel (hydroxypropylcellulose) (HPC), evaluated on day 30) was 253 % of control. For the same compound, the T/C (T/C endpoint: mean survival time, dose: 64.0 mg/kg/injection, schedule: Q01DX001 (ip), vehicle: Klucel (hydroxypropylcellulose) (HPC), evaluated on day 60) was 405, 519, 524 % of control, the T/C (T/C endpoint: mean survival time, dose: 64.0 mg/kg/injection, schedule: Q01DX001 (sc), vehicle: Klucel (hydroxypropylcellulose) (HPC)) was 132 % of control and the T/C [1] was 136 % of control. For the same compound, the survivor count [1] was 6 of 6, the T/C (T/C endpoint: mean survival time, dose: 64.0 mg/kg/injection, schedule: Q01DX009 (oral), vehicle: Klucel (hydroxypropylcellulose) (HPC)) was 136 % of control and the survivor count (T/C endpoint: mean survival time, dose: 64.0 mg/kg/injection, schedule: Q01DX009 (oral), vehicle: clinical formulation) was 10 of 10. The T/C (T/C endpoint: mean survival time, dose: 64.0 mg/kg/injection, schedule: Q04DX003 (ip), vehicle: Klucel (hydroxypropylcellulose) (HPC), evaluated on day 30) was 120 % of control, the T/C (T/C endpoint: mean survival time, dose: 64.0 mg/kg/injection, schedule: Q04DX003 (ip), vehicle: Klucel (hydroxypropylcellulose) (HPC), evaluated on day 60) was 160, 260, 490 % of control and the T/C (T/C endpoint: mean survival time, dose: 128.0 mg/kg/injection, schedule: Q01DX001 (ip), vehicle: Klucel (hydroxypropylcellulose) (HPC), evaluated on day 30) was 287 % of control [4 of 6 alive]. For the same compound, the T/C (T/C endpoint: mean survival time, dose: 128.0 mg/kg/injection, schedule: Q01DX001 (ip), vehicle: Klucel (hydroxypropylcellulose) (HPC), evaluated on day 60) was 462 [9 of 10 alive], 600, 675 % of control, the T/C (T/C endpoint: mean survival time, dose: 128.0 mg/kg/injection, schedule: Q01DX001 (sc), vehicle: Klucel (hydroxypropylcellulose) (HPC)) was 142 % of control and the T/C (T/C endpoint: mean survival time, dose: 128.0 mg/kg/injection, schedule: Q01DX001 (sc), vehicle: clinical formulation) was 145 % of control. The T/C [2] was 129 % of control, the survivor count [2] was 4 of 6 and the T/C (T/C endpoint: mean survival time, dose: 128.0 mg/kg/injection, schedule: Q01DX009 (oral), vehicle: Klucel (hydroxypropylcellulose) (HPC)) was 143 % of control. The survivor count (T/C endpoint: mean survival time, dose: 128.0 mg/kg/injection, schedule: Q01DX009 (oral), vehicle: clinical formulation) was 9 of 10, the T/C (T/C endpoint: mean survival time, dose: 128.0 mg/kg/injection, schedule: Q04DX003 (ip), vehicle: Klucel (hydroxypropylcellulose) (HPC), evaluated on day 30) was 92 % of control and the T/C (T/C endpoint: mean survival time, dose: 128.0 mg/kg/injection, schedule: Q04DX003 (ip), vehicle: Klucel (hydroxypropylcellulose) (HPC), evaluated on day 60) was 94 [8 of 9 alive], 101, 119 % of control. The T/C (T/C endpoint: mean survival time, dose: 128.0 mg/kg/injection, schedule: Q04DX003 (oral), vehicle: Klucel (hydroxypropylcellulose) (HPC)) was 134 % of control, the survivor count (T/C endpoint: mean survival time, dose: 256.0 mg/kg/injection, schedule: Q01DX001 (ip), vehicle: Klucel (hydroxypropylcellulose) (HPC)) was 4 of 9 and the survivor count (T/C endpoint: mean survival time, dose: 256.0 mg/kg/injection, schedule: Q01DX009 (oral), vehicle: clinical formulation) was 10 of 10. For the same compound, the T/C (T/C endpoint: mean survival time, dose: 256.0 mg/kg/injection, schedule: Q04DX003 (oral), vehicle: Klucel (hydroxypropylcellulose) (HPC)) was 129 % of control, the survivor count (T/C endpoint: mean survival time, dose: 256.0 mg/kg/injection, schedule: Q08DX002 (ip), vehicle: Klucel (hydroxypropylcellulose) (HPC)) was 3 of 9 and the survivor count (T/C endpoint: mean survival time, dose: 512.0 mg/kg/injection, schedule: Q01DX009 (oral), vehicle: clinical formulation) was 8 of 10. The T/C (T/C endpoint: mean survival time, dose: 512.0 mg/kg/injection, schedule: Q04DX003 (oral), vehicle: Klucel (hydroxypropylcellulose) (HPC)) was 131 % of control, the survivor count (T/C endpoint: mean survival time, dose: 1024.0 mg/kg/injection, schedule: Q01DX001 (oral), vehicle: clinical formulation) was 1 of 10 and the survivor count (T/C endpoint: mean survival time, dose: 1024.0 mg/kg/injection, schedule: Q01DX009 (oral), vehicle: Klucel (hydroxypropylcellulose) (HPC)) was 8 of 10. For the same compound, the survivor count (T/C endpoint: mean survival time, dose: 1024.0 mg/kg/injection, schedule: Q01DX009 (oral), vehicle: clinical formulation) was 0 of 10, the T/C (T/C endpoint: mean survival time, dose: 1024.0 mg/kg/injection, schedule: Q04DX003 (oral), vehicle: Klucel (hydroxypropylcellulose) (HPC)) was 125 % of control and the T/C (T/C endpoint: median survival time, dose: 0.5 mg/kg/injection, schedule: Q01DX009 (ip), vehicle: saline) was 133 % of control. For the same compound, the T/C (T/C endpoint: median survival time, dose: 1.0 mg/kg/injection, schedule: Q01DX009 (ip), vehicle: saline) was 138 % of control and the T/C (T/C endpoint: median survival time, dose: 4.0 mg/kg/injection, schedule: Q01DX009 (sc), vehicle: Klucel (hydroxypropylcellulose) (HPC)) was 142 % of control.

In the case of `NNc1ncccc1[N+](=O)[O-]`, the survivor count (T/C endpoint: mean survival time, dose: 400.0 mg/kg/injection, schedule: Q01DX001 (ip), vehicle: saline) is reported as 1 of 4.

In the case of `CC(=O)NC1C(OC(C)=O)OC(COC(c2ccccc2)(c2ccccc2)c2ccccc2)C(O)C1OC(C)=O` (stereo unspecified), the survivor count (T/C endpoint: mean survival time, dose: 100.0 mg/kg/injection, schedule: Q04DX003 (ip), vehicle: saline with Tween-80) is reported as 0 of 3 and 3 of 3.

`CCCCCC(O)C1C(=O)OC(C)C(O)/C=C/C=C/C=C/C=C\C=C(\C)C(O)CC(O)CC(O)CC(O)CC(O)CC(O)CC1O` (stereo unspecified) was tested, and the survivor count (T/C endpoint: mean survival time, dose: 100.0 mg/kg/injection, schedule: Q01DX001 (ip), vehicle: carboxymethylcellulose (CMC)) was 0 of 4, the survivor count (T/C endpoint: mean survival time, dose: 200.0 mg/kg/injection, schedule: Q01DX001 (ip), vehicle: carboxymethylcellulose (CMC)) was 0 of 4 and the survivor count (T/C endpoint: mean survival time, dose: 400.0 mg/kg/injection, schedule: Q01DX001 (ip), vehicle: carboxymethylcellulose (CMC)) was 1 of 4.
